Laboratory results reported in article PMC7819943, “Rice protein-binding microarrays: a tool to detect cis-acting elements near promoter regions in rice”.
The list shows a part of the results.

By UniProt entry, the sequences of proteins in these tests, tags left out.
UniProt Q0JBA9, entry or part of it: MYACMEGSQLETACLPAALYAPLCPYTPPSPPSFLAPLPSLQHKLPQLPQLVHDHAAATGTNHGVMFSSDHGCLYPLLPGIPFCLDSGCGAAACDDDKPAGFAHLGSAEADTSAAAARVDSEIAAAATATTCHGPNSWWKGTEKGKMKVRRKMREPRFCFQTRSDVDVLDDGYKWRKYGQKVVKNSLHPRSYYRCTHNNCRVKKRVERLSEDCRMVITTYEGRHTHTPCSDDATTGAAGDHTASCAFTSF

target: OsWRKY34 (Oryza sativa, UniProt Q0JBA9 1-250); experiment: protein-binding microarray (RPBM); PBS, 2% BSA, 51.3 ng/ul salmon testes DNA, 50 uM zinc acetate, 200 nM TF, 25 C, 1 h; high values mean tight binding; details: protein: recombinant; tags: N-terminal polyhistidine and DsRed monomer fusion (pET32a); label: CyDye5-dUTP incorporated in the synthesized complementary strand; 3' TTTTT single-stranded linker to array surface; dsDNA, one strand shown
In short: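 An Axon 4000B scanner gave the binding signal as per-feature fluorescence intensity in arbitrary units. This followed washing of a custom Agilent array that had been incubated for 1 h at 25 °C with 200 nM protein in PBS, 2% BSA, salmon testes DNA and 50 µM zinc acetate. The proteins were transcription factors fused at the N-terminus to polyhistidine and DsRed, expressed in E. coli BL21-CodonPlus and purified on Ni–NTA.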

Row | Sequence | binding signal
1 | TCTGGCTTGTTATGATTGTGCCAGTAGCGTCCTATCCTACCGGAGTCACCTAGTGCAG | 8960 fluorescence intensity (a.u.)
2 | TCTGGTACGTCATCCGTGTATGTGTTGGTTTTTAACCGTACGGAGTCACCTAGTGCAG | 10900 fluorescence intensity (a.u.)
3 | ATTTTTGAACATTTTATCTCTGCCATATCATGCTATTTCACGGAGTCACCTAGTGCAG | 9220 fluorescence intensity (a.u.)
4 | AGAGGACCCAGCATCACATAATAGTAGTCTGCGTAATAATCGGAGTCACCTAGTGCAG | 9270 fluorescence intensity (a.u.)
5 | GAGTAGTAAGTTATATCCCTCAACCATTTCACTTCACACACGGAGTCACCTAGTGCAG | 9600 fluorescence intensity (a.u.)
6 | TCTCTCTACCATCTCTGTCGTCCAACCTCTTAGTTTCCTGCGGAGTCACCTAGTGCAG | 11600 fluorescence intensity (a.u.)
7 | CTCCCATTTGCGCAGCATTCCTTCGTGGCTTGGTGGTGTACGGAGTCACCTAGTGCAG | 8530 fluorescence intensity (a.u.)
8 | CCCATCTCCCGTTGCATTATCCTCTCTTTTCTTGATTTCCCGGAGTCACCTAGTGCAG | 9090 fluorescence intensity (a.u.)
9 | CGGGGTTTCACTTGGTTTTAATTGTTCCTGTGCTGCGTCGCGGAGTCACCTAGTGCAG | 18700 fluorescence intensity (a.u.)
10 | CACACCCACCCACACACCACTCACTGACATGCGGGCCCCACGGAGTCACCTAGTGCAG | 12800 fluorescence intensity (a.u.)
11 | ACCTACTACATTCATGAGTTGCACATTTTGCATATCTTTTCGGAGTCACCTAGTGCAG | 8580 fluorescence intensity (a.u.)
12 | AACGCCGCCTCCAGCTTCTCCATGATCGCCGGCGCCAGCGCGGAGTCACCTAGTGCAG | 8670 fluorescence intensity (a.u.)
13 | TGACCAAATTTTCATCCTTCCGTTACTATCTGCGGATCTTCGGAGTCACCTAGTGCAG | 10100 fluorescence intensity (a.u.)
14 | CATATTTCTCATCGTTTTTATTCTTAGTTGCTATATGTAGCGGAGTCACCTAGTGCAG | 9050 fluorescence intensity (a.u.)
15 | CCCTCCTTGCACATTTTAGTACTAATTCGCCTACGACTTCCGGAGTCACCTAGTGCAG | 8410 fluorescence intensity (a.u.)
16 | TTACGTTTTTCTGGTGGGTTTTGTGCTTTTTCAGAGTACGCGGAGTCACCTAGTGCAG | 11800 fluorescence intensity (a.u.)
17 | AGCAATGACTTTTATACAACACATGCCAATCCATTTTCCCCGGAGTCACCTAGTGCAG | 9160 fluorescence intensity (a.u.)
18 | AACTTCCACTGAACACATGAACCGAAGCCCACACTGTCCCCGGAGTCACCTAGTGCAG | 9030 fluorescence intensity (a.u.)
19 | CACATCTCTCGCATCCCAATCCGCCACAGCACTCTACATGCGGAGTCACCTAGTGCAG | 9860 fluorescence intensity (a.u.)
20 | AATATTTATCATTTATTTTCGTTTTTTTAGTATGTGTTAGCGGAGTCACCTAGTGCAG | 8320 fluorescence intensity (a.u.)
21 | ACACTTTTGTCTCGAATTTGAATTCACCATCTGCACCGATCGGAGTCACCTAGTGCAG | 8030 fluorescence intensity (a.u.)
22 | TATTCTCGTCAACCTATGTTTACAAAGCTTGAAATCTCAACGGAGTCACCTAGTGCAG | 9040 fluorescence intensity (a.u.)
23 | ACCTCGTCCTCTGCTGATTTCAACCCATCGTCGCTCGATCCGGAGTCACCTAGTGCAG | 10300 fluorescence intensity (a.u.)
24 | CAACTAATCATCAGCCTCTTCGATCTCCTTAATTTGTTTCCGGAGTCACCTAGTGCAG | 10300 fluorescence intensity (a.u.)
25 | GCTCCGTCTTCCTGCTCCAGCCGCTCGCCATAGCCCACTGCGGAGTCACCTAGTGCAG | 11100 fluorescence intensity (a.u.)
26 | CTATGATTATTAGTCAAAAGCTACCAAGTTTGATTTTCCTCGGAGTCACCTAGTGCAG | 8360 fluorescence intensity (a.u.)
27 | GAGTGGAGTACTGTTTAATTTGGAGCTTAGCCATCCACTACGGAGTCACCTAGTGCAG | 8760 fluorescence intensity (a.u.)

Quoted from above, entries 4 to 5
Row | Sequence | binding signal
4 | AGAGGACCCAGCATCACATAATAGTAGTCTGCGTAATAATCGGAGTCACCTAGTGCAG | 9270 fluorescence intensity (a.u.)
5 | GAGTAGTAAGTTATATCCCTCAACCATTTCACTTCACACACGGAGTCACCTAGTGCAG | 9600 fluorescence intensity (a.u.)

2 entries drawn at random from those above, as already listed:
Row | Sequence | binding signal
23 | ACCTCGTCCTCTGCTGATTTCAACCCATCGTCGCTCGATCCGGAGTCACCTAGTGCAG | 10300 fluorescence intensity (a.u.)
11 | ACCTACTACATTCATGAGTTGCACATTTTGCATATCTTTTCGGAGTCACCTAGTGCAG | 8580 fluorescence intensity (a.u.)

Next part.

Row | Sequence | binding signal
28 | ATTGACTCCCGCTGATTTTTCTTCTGGGTTCGCCATTGCCCGGAGTCACCTAGTGCAG | 12300 fluorescence intensity (a.u.)
29 | ATCTATCATTCTGAAATTATTCATCATCGATCAAGGTGCTCGGAGTCACCTAGTGCAG | 8110 fluorescence intensity (a.u.)
30 | CCACCGCTCTCTTCCGCCGCTGCGGCTCACGGCTACGCAGCGGAGTCACCTAGTGCAG | 8220 fluorescence intensity (a.u.)
31 | GCGGATTGGTCGCCCGCCACTGTCTCCCGCGCCTTTCTTGCGGAGTCACCTAGTGCAG | 12200 fluorescence intensity (a.u.)
32 | CACTACTCCTACGCCTTACAGATCTGATCCTGCTGGATTGCGGAGTCACCTAGTGCAG | 10200 fluorescence intensity (a.u.)
33 | ATGCACTCATTGGTTGGTATAAATACACCACATTGTTCACCGGAGTCACCTAGTGCAG | 8300 fluorescence intensity (a.u.)
34 | TGATGGATATGGTACTATACTACGGAGTTTTTTCTTCACACGGAGTCACCTAGTGCAG | 9760 fluorescence intensity (a.u.)
35 | TGTGTAGGGTGGGTTCTATTTGAGGGATTAGAGTATGTTCCGGAGTCACCTAGTGCAG | 15500 fluorescence intensity (a.u.)
36 | CTACCTCAGTCACCACTCACCACACCAGGTGCGAGCTATACGGAGTCACCTAGTGCAG | 8600 fluorescence intensity (a.u.)
37 | ATTCCTATCAAAATCCTACGATTTTCCTATTCGTACGTTTCGGAGTCACCTAGTGCAG | 8640 fluorescence intensity (a.u.)
38 | TCGAACGTGGGGATGGCTAATTGCAGAGGTTGATCTAACTCGGAGTCACCTAGTGCAG | 9500 fluorescence intensity (a.u.)
39 | GGGTTGATTTTGCTTCCTGCATCCCAGCGACATCGCCCAACGGAGTCACCTAGTGCAG | 11500 fluorescence intensity (a.u.)
40 | CTTCACTTCACTTCACGCACGCTCAGATCCAGCCTCGCTTCGGAGTCACCTAGTGCAG | 9900 fluorescence intensity (a.u.)
41 | GGTAGCCATCTTAACTTTTAAAATCTCTCAACATTTTTTACGGAGTCACCTAGTGCAG | 11200 fluorescence intensity (a.u.)
42 | TATTGTTGTTCCAACCAACTTTTGTATCATTCTTATTCTTCGGAGTCACCTAGTGCAG | 12900 fluorescence intensity (a.u.)
43 | AGCCTTAATTTGCACGCTACAGTCTATCAACCACTTTAATCGGAGTCACCTAGTGCAG | 11400 fluorescence intensity (a.u.)
44 | TCCACCACCTCAGTCCGCCTCTCCAGTGCCTCGATTGACTCGGAGTCACCTAGTGCAG | 8470 fluorescence intensity (a.u.)
45 | CGACACATTCTTCGAGATACTACTTTGACCAACAATATCTCGGAGTCACCTAGTGCAG | 10900 fluorescence intensity (a.u.)
46 | AAATCATTTTTCTATTTTCGTTCCTATTTATTTAACTCAACGGAGTCACCTAGTGCAG | 8160 fluorescence intensity (a.u.)
47 | GCGCTGTGGTCCCGGCGCCGGCAGTGGTTGCTTCTGCGCGCGGAGTCACCTAGTGCAG | 8560 fluorescence intensity (a.u.)
48 | GGTGGTGGTGGTGGGGCGGGAGAAGTACTCCGAGTAGTCGCGGAGTCACCTAGTGCAG | 15500 fluorescence intensity (a.u.)
49 | ACGTGGCACTCGACTGGCGCTTTTTTCGGTGTTTTTCTTTCGGAGTCACCTAGTGCAG | 13800 fluorescence intensity (a.u.)
50 | CTCCTCCCCTGTTTCCTCTCGTTCTTCTCCAACTCACCCTCGGAGTCACCTAGTGCAG | 10200 fluorescence intensity (a.u.)
51 | TGCAGCCTTCTTGTCCTCCTGTTCGTCAACAGCATCAGCACGGAGTCACCTAGTGCAG | 10900 fluorescence intensity (a.u.)
52 | ATGTTTCAAATTTGCACAGAGCATGCATTTTCTTTGGTTACGGAGTCACCTAGTGCAG | 8590 fluorescence intensity (a.u.)
53 | TCCCTCGGTCCCATCGTATATATATATACCGTATGTCCCGCGGAGTCACCTAGTGCAG | 9470 fluorescence intensity (a.u.)
54 | ACACAGCTCCAACCCATGCACATCCATCCAACTTAATTTGCGGAGTCACCTAGTGCAG | 10500 fluorescence intensity (a.u.)
